No constants are given. Whether binding was seen depends on the method and setting. In cells and extracts the contact can be indirect. Some binding calls cover weakened binding; strength is not graded here.
What was measured:
[1] = target: T1, hypermethylated in cancer 1 (HIC1) (human) (UniProt Q14526); assay: proximity ligation
T1 sequence: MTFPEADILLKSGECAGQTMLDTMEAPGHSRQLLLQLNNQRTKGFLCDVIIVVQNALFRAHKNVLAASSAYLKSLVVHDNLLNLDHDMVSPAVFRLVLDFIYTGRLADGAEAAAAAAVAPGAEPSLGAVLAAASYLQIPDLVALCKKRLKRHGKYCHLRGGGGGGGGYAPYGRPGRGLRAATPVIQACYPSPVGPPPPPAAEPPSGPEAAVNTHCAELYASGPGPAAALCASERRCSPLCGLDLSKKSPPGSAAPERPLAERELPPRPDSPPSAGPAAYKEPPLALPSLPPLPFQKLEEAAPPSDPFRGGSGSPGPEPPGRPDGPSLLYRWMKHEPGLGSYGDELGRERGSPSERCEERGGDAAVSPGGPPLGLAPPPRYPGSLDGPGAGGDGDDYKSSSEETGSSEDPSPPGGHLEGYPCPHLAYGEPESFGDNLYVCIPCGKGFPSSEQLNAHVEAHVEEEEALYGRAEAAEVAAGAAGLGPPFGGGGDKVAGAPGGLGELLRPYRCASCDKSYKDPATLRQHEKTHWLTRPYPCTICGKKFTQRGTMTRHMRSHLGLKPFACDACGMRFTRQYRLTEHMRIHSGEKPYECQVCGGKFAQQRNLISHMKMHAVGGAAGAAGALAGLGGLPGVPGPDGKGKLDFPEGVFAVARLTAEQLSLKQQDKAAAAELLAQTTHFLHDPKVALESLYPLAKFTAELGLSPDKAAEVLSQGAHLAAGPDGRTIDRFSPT

Chains of the proteins cited; added tags and fusions are not shown.
UniProt Q9UKT9: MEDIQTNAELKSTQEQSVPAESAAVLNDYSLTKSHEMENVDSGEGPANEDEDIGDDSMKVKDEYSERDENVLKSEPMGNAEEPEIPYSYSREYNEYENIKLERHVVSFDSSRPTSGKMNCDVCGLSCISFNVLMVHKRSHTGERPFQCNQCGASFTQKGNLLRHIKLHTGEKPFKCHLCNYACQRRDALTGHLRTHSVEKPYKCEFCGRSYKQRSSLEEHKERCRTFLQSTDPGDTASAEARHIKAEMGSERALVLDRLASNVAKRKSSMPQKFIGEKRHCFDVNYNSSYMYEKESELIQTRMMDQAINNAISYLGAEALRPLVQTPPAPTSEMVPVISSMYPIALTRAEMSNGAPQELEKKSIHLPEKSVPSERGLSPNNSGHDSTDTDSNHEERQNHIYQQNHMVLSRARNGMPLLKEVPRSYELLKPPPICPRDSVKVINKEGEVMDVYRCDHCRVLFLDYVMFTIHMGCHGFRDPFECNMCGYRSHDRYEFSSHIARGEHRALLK
UniProt Q01196: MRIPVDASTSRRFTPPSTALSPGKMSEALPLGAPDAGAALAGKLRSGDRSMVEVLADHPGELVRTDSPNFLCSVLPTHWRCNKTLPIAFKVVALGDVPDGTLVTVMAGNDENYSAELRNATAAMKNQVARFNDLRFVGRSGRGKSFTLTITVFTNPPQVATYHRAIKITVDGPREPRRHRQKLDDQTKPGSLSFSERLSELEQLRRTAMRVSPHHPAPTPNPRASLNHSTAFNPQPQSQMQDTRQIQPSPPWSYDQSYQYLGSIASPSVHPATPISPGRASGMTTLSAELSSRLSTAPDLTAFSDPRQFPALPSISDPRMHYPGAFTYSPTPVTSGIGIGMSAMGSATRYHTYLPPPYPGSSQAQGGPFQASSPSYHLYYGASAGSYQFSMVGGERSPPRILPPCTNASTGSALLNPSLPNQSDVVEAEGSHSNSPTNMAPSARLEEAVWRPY

[2] = target: T1, hypermethylated in cancer 1 (HIC1) (human); assay: co-IP

Row | Substance | binding [1] | binding [2]
1 | IKZF3 (from UniProt Q9UKT9 1-509) | binds | binds
2 | Runt-related transcription factor 1 (RUNX1) (from UniProt Q01196 1-453) | binds | binds
